Laboratory results as given in PubChem BioAssay AID1487 (National Center for Advancing Translational Sciences (NCATS), 2009).
“And” between values parts separate entries of the source, which are not always exact repeats. Equal entries are not always repeated. Some of the results follow. These are further read-outs of the screen, such as a control signal, another cell line or another target. No call is given for them. Most of these compounds were active or inconclusive in the main read-out, so they are no random draw. Words in brackets tell the shape of the fitted curve; partial curves, single points and poor fits give uncertain potencies.

Assay: qHTS Assay for Modulators of Lamin A Splicing
Details: HeLa LMNA splicing GFP/RFP minigene ratio, 48 h
In short: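 S3 HeLa cells stably expressing lamin A-EGFP splicing minigene plus DsRed2, 600 cells/well, 48 h compound exposure at 37C. Laser-scanning cytometry; analysed as GFP (500-530 nm)/RFP (575-640 nm) total intensity ratio; 0.5% DMSO vehicle.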

[1] = measured here: RFP viability control channel
[2] = measured here: GFP splicing reporter channel

## O=C1Nc2cc(C(=O)N3CCc4ccccc4C3)ccc2S/C1=C\c1ccccc1
[1]
  AC50: 22.4 µM [rising, single point]

## CCc1ccc(NCc2cc3cc4c(cc3n(CC(=O)Nc3ccc(OC)cc3)c2=O)OCO4)cc1
[1]
  AC50: 0.794 µM [falling, full curve, poor fit]

## CCn1c(SCC(=O)N(C)C2CCS(=O)(=O)C2)nnc1-c1cccs1 (stereo unspecified)
[2]
  AC50: 5.62 µM [rising, single point]

## Cc1nn(-c2ccccc2)c(Oc2ccccc2)c1C=O
[2]
  AC50: 35.5 µM [rising, single point]
[1]
  AC50: 35.5 µM [rising, single point]

## Cn1c(SCC(=O)N2CCOCC2)ncc(C(=O)Nc2ccc(F)cc2)c1=O
[1]
  AC50: 14.1 µM [rising, single point]

## COc1c(S(=O)(=O)N2CCN(c3ccc(F)cc3)CC2)ccc(Cl)c1Cl
[1]
  AC50: 31.6 µM [rising, single point]

## C/C(=C\c1ccccc1)C(=O)N1CCN(c2cccc(C(F)(F)F)c2)CC1
[1]
  AC50: 35.5 µM [rising, single point]

## CC(=O)c1ccc(NC(=O)C(C)OC(=O)c2ccc3c(c2)nc(C)n3-c2ccccc2)cc1 (stereo unspecified)
[2]
  AC50: 17.8 µM [rising, single point]

## Cc1nc([N+](=O)[O-])c(Br)n1CC(=O)c1ccc(F)cc1
[1]
  AC50: 35.5 µM [falling, single point]

## CNc1nc(SC)nc(N(C)C#N)n1
[1]
  AC50: 0.398 µM [falling, full curve, poor fit]

## Cn1c(=O)c2c(ncn2CCO)n(C)c1=O
[2]
  AC50: 0.794 nM [falling, full curve, poor fit] and 2.24 µM [rising, full curve]
[1]
  AC50: 3.16 µM [falling, single point] and 2.24 µM [falling, single point]

## Cc1cccc(-c2nnn(C/C(N)=N/O)n2)c1
[2]
  AC50: 7.94 µM [falling, partial curve]
[1]
  AC50: 5.01 µM [falling, partial curve]

## CCCCOc1ccc(CC(=O)NCC(=O)O)cc1
[2]
  AC50: 0.501 µM [rising, full curve, poor fit]
[1]
  AC50: 0.891 µM [rising, partial curve]

## COc1ccc(CCNC[C@@H](O)c2ccc(O)cc2)cc1OC
[2]
  AC50: 0.891 µM [falling, full curve, poor fit]
[1]
  AC50: 1.12 µM [falling, full curve, poor fit]

## Fc1ccc(-c2csc(N3CCC(c4ccccc4)C3)n2)cc1 (stereo unspecified)
[2]
  AC50: 35.5 µM [falling, single point]

## CCOC(=O)C1(CCOC)CCN(C(C)CCc2ccc(OC)cc2)CC1 (stereo unspecified)
[1]
  AC50: 2.51 µM [falling, full curve]

## N#CCSc1nn(-c2ccc(F)cc2)c(=S)s1
[1]
  AC50: 0.0708 µM [falling, full curve, poor fit]

## Cc1cccc(N(C)S(=O)(=O)c2nnc(NC(=O)C(C)(C)C)s2)c1
[1]
  AC50: 2.82 µM [rising, full curve, poor fit]

## CCOC(=O)COc1ccccc1/C=C\[N+](=O)[O-]
[2]
  AC50: 3.55 µM [falling, single point]
[1]
  AC50: 4.47 µM [falling, single point]

## COc1cc(C(=O)N/N=C(\c2ccccc2)c2ccccn2)cc(OC)c1OC
[2]
  AC50: 35.5 µM [rising, single point]
[1]
  AC50: 7.08 µM [rising, partial curve, poor fit]

## Cn1c(SCC(=O)N(Cc2ccccc2)C(C)(C)C)nc2ccccc21
[1]
  AC50: 12.6 µM [rising, single point]

## Cc1cc(C)cc(OCC(=O)NN2C(=O)c3ccccc3C2=O)c1
[1]
  AC50: 0.0794 µM [falling, full curve, poor fit]

## CCOC(=O)/C(=C\c1ccccc1)C(=O)c1cc(C(C)=O)c(Nc2ccccc2)s1
[2]
  AC50: 5.62 µM [falling, single point]
[1]
  AC50: 17.8 µM [falling, single point]

## CCc1cc(-c2nc(N)ncc2-c2csc(C)n2)c(O)cc1OC
[1]
  AC50: 31.6 µM [falling, single point]

## O=C(CSc1nnc2ccccn12)NCCc1ccc(Cl)cc1
[2]
  AC50: 35.5 µM [rising, single point]
[1]
  AC50: 3.98 µM [rising, partial curve, poor fit]

## CCOc1ccc(/C=N/NC(=O)CC(=O)NCc2ccccc2)cc1
[2]
  AC50: 0.398 µM [falling, full curve, poor fit]
[1]
  AC50: 20 µM [falling, partial curve, poor fit]
